Binding data for 1 substance are collected here from paper PMC4947186.

By UniProt entry, the sequences of proteins in these tests, tags left out.
UniProt P49792: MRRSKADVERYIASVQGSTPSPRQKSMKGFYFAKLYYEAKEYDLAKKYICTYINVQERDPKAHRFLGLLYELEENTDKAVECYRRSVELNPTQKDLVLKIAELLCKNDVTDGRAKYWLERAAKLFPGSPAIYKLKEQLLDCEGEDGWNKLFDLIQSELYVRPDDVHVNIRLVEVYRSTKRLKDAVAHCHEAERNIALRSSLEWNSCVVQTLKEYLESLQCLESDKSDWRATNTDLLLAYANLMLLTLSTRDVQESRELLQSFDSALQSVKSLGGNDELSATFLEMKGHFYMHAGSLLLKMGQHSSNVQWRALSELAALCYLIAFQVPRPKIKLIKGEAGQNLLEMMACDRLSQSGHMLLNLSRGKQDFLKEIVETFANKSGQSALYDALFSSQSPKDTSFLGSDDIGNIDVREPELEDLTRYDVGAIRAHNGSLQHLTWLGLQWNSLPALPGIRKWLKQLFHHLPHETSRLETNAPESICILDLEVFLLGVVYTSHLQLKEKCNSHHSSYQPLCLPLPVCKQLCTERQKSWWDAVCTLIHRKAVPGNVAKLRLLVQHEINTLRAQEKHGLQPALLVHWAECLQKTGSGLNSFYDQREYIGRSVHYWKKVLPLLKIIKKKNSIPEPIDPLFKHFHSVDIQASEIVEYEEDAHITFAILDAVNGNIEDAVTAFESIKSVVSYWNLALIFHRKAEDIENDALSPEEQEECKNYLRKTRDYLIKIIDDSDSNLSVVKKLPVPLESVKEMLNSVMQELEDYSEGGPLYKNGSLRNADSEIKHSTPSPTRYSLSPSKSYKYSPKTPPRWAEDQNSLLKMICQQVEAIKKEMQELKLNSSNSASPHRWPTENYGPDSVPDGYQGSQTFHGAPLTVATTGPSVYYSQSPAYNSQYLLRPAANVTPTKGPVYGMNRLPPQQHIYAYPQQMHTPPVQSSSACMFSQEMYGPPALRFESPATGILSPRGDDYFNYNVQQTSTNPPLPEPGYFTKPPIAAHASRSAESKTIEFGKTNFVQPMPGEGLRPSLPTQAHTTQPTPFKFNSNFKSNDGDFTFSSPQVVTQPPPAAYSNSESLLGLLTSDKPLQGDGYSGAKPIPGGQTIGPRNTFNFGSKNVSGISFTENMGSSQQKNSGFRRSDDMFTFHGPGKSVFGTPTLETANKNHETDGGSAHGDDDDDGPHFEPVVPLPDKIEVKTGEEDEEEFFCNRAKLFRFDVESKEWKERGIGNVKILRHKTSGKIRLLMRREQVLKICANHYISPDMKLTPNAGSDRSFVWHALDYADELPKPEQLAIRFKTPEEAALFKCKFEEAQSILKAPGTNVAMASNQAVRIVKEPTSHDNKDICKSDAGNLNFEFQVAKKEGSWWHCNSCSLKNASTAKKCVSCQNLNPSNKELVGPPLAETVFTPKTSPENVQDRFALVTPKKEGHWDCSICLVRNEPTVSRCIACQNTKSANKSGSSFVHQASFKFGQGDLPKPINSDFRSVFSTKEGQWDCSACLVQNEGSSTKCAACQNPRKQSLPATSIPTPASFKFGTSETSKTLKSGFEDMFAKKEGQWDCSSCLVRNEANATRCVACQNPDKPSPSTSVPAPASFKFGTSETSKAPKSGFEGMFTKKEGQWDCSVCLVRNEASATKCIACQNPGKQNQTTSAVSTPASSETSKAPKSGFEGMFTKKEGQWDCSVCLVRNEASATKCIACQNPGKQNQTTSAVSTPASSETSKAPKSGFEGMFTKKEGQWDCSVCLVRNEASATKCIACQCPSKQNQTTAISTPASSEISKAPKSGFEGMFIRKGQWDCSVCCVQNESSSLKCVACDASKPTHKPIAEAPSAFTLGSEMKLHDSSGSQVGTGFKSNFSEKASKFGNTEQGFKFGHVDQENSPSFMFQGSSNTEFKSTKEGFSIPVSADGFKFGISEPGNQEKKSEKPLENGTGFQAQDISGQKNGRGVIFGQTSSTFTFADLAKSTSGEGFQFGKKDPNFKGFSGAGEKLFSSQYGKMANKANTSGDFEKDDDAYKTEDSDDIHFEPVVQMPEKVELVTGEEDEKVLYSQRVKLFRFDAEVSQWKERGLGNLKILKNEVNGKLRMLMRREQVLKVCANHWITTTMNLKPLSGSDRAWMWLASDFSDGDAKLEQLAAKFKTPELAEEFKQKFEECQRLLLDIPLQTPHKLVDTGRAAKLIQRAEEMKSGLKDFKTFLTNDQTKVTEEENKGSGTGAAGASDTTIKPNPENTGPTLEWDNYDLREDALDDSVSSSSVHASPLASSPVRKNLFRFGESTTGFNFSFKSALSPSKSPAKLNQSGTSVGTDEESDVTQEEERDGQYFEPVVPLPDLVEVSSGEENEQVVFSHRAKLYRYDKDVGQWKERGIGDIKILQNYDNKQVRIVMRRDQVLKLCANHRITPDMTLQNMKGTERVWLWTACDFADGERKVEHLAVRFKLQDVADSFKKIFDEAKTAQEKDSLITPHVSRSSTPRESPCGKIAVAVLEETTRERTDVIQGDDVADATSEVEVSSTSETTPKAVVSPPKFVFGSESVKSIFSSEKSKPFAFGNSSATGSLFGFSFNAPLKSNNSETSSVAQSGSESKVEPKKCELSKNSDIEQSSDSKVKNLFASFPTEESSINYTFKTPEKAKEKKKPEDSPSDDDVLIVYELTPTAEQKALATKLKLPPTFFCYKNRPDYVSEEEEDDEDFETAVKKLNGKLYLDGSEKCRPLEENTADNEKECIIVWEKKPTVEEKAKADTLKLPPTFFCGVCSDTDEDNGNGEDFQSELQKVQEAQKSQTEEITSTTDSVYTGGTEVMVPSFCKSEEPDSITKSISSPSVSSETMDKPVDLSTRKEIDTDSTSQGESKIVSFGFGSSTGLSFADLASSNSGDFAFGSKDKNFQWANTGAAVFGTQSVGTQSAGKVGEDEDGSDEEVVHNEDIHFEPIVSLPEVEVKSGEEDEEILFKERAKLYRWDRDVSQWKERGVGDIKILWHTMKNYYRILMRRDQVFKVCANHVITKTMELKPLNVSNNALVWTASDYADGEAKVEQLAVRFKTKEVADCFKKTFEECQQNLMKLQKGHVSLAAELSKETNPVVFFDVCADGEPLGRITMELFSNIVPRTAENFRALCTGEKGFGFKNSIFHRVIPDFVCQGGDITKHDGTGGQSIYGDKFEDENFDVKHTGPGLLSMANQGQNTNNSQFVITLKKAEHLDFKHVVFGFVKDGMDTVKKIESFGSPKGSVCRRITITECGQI

These are yes or no findings as the source states them, for the method shown. Binding seen in cells or lysates may run through a third protein. A yes stands for co-enrichment or nearness to the bait. Other partners may have been found. Where a sequence is shown, tags or fusion partners need not be part of it.

In this experiment the target is T1, flag-SHP (Small Heterodimer Partner, NR0B2), wild type, expressed in HepG2 cells (mouse) (UniProt Q62227).
T1 sequence: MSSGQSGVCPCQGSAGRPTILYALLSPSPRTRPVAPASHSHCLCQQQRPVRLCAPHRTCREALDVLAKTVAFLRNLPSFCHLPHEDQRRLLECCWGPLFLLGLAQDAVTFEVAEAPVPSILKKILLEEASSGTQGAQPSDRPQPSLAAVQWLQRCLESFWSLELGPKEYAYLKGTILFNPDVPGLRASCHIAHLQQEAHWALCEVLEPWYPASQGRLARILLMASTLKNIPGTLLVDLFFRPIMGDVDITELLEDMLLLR
Briefly: affinity purification with mass spectrometry; flag-SHP complexes (flag-SHP immunoprecipitate) from HepG2 cells treated with vehicle or CDCA; liquid chromatography-mass spectrometry.

On to “Ran-binding protein 2 (RanBP2/Nup358), endogenous in HepG2 cells (from UniProt P49792 1-3224)”, for which the binding entry is “binds”.
